In patent publication US20040166544A1:
Results are given in words; binding and its absence hold for the method and conditions named. Some entries that bind do so weakly or less than the wild type.

Target: c-Met/Fc Chimera (R&D Systems, catalog # 358-MT-100) (human) (UniProt P08581)
Assay: europium (DELFIA) ligand competition ELISA: biotinylated HGF binding to plate-coated c-Met/Fc Chimera, Fab titrated

B1: c-Met 12123 Fab (Fab, V domains shown)
VH: QVQLQESGPGLVKPSATLSLTCAVSGGSISSNHWWSWVRQSPGKGLEWIGEIYTYGGANYNPSLKSRVDISMDKSKNQFSLHLSSVTAADTAVYYCGRHLTGYDCFDIWGQGTLVTVSS
VL: QAVLTQPSSVSGAPGQRVTISCTGSSSNIGAGYDVHWYQQLPGTAPKLLIYGNSNRPSGVPDRFSGSKSGTSASLAITGLQAEDEADYYCQSYDSSLSGVFGTGTQLTVLS
Q: Which binding does the source give for B1 here?
A: binds
